This passage reports binding results from PMC6915754, “Protein components of ribonucleoprotein granules from Drosophila germ cells oligomerize and show distinct spatial organization during germline development” (Scientific Reports, 2019).

T1: GFP-Aub (functional and methylated, from fly ovaries) (Drosophila) (UniProt O76922)
T1 sequence (chain, methylated (sDMAs), positions not printed): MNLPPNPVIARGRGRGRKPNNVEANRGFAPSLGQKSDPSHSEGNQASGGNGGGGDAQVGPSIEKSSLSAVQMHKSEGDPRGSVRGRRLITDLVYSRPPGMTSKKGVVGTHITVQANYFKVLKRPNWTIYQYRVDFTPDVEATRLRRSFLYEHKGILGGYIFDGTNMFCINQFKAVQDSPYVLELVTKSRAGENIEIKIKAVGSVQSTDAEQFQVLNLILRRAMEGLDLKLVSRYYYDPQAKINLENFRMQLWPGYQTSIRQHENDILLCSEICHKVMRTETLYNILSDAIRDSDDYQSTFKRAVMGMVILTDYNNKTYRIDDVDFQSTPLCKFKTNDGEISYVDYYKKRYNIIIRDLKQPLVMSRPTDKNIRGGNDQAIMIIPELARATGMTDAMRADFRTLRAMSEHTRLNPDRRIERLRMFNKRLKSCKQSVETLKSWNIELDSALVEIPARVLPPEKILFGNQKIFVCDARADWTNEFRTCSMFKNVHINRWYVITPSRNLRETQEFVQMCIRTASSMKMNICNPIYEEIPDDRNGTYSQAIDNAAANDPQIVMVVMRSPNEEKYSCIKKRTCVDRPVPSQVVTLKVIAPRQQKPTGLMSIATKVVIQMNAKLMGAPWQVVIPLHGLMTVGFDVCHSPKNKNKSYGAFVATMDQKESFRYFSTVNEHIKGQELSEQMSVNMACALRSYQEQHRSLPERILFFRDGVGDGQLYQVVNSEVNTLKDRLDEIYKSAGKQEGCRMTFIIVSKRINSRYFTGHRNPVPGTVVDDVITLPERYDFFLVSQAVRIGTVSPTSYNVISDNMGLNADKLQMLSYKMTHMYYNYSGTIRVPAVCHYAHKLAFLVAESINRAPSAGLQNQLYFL

B1: Tud domain 7 (amino acids 1605-1785 of Tudor) (domain or fragment, UniProt P25823 1605-1785)
chain: SKQAPAQEDPYKDLDCVVLSHCDNPAQFYVHPIDQLSKLNQLHENLQIVSPSLPQLMNVVNGADCVSMYSVDKCWYRAKIIDAELMVLLFIDYGNTDCVSDATDIKESMWSHIEPFCLPCALPIRPKGTADWVDAANGIFNESYSKVPRLEYLTQGDHYTTSYVNMYIDGEDVAKKLIADG
B2: Tud domain 5 (amino acids 1153-1328 of Tudor) (domain or fragment, UniProt P25823 1153-1328)
chain: VNAKVDCEFVSKEKSNQGSNTSSTCSYTVNIFVNGASLRDMLVKAEFLTEVAPEIRVNLLAGQQIRGKFTSIRDMTSFKVQFDYGNNVNFLCTYDDAKFVKSNPNLARRFKEFYEGKSFALNVKNVCENNIVHLRPVMPLFMEDRRSFICPYPVVLSSFQALVVYTAKPYRVYVQP
B3: Tud domain 8 (amino acids 1791-1964 of Tudor) (domain or fragment, UniProt P25823 1791-1964)
chain: EYLASGCSCYISHVNGICDFFIQLERDSKALELIELYLRKKDTLKPLEGFEKGLIVAALFEDDELWYRAQLQKELPDSRYEVLFIDYGNTSTTSKCLMLSEEIASLPSLSKKCSLQLPDAYISWSPEAEAKFAELTGEGELVFTTQLLKPGQDHVTIDLLLDGENIIDRLLPLC
B4: Tud domain 10 (amino acids 2140-2340 of Tudor) (domain or fragment, UniProt P25823 2140-2340)
chain: SLKIYEHLQKLVQAELKLIQKRNENSECIISYGNSPKSFYVQMKHNSADLDLIVKTLQSLKKEKLKKLIDPTTNSNGVCYSQEDACYYRCSIKSVLDPSQGFEVFLLDYGNTLVVPEVWQLPQEIEPIPSLALHCQLSKIPMDVSDEKLEEAFAALLEQHFGELYEITTQPNEDETKPLIAELRINYKDFVQELVSTVTGV

No constants are given. Whether binding was seen depends on the method and setting. Sequences can lack the tags named with a protein.

This assay concerns the target T1, GFP-Aub (functional and methylated, from fly ovaries) (Drosophila). The assay is described as follows: pull-down; GFP-Aub from fly ovaries held on anti-GFP agarose beads; partially purified His-SUMO Tud domains added; 50 µl reactions, 4 °C, 30 min, binding buffer PBS + 0.05% IGEPAL CA-630; 4 washes; bound domains detected by anti-His-tag western blot; both purified. (A western blot detects proteins with antibodies after separation by electrophoresis.)
B1: the binding result is recorded as “no binding”. With B2, the binding result is recorded as “no binding”. Consider B3, for which the binding entry is “no binding”. Take B4: the binding entry is “no binding”.
